Laboratory results published in article PMC11672801 (Antibiotics, 2024).

Key:
[1] = test system: cancer cells (MCF-7, HeLa); parameters: species or system human; settings: HC50 / lowest IC50
Experimental: The selectivity of action of the analogs against micro-organisms or cancer cells was further evaluated through calculation of their selectivity indexes (SIs). SIs were determined using either the MIC on micro-organisms or IC50 on cancer cells compared to HC50 values, and they are reported in Table 6.

micro-organisms = assay: Selectivity index: HC50 divided by lowest MIC on micro-organisms; settings: for SI Based on MIC: HC50 / lowest MIC
[2] = general procedure: Fmoc solid-phase peptide synthesis; Rink amide resin (1 g, 0.6 mmol/g); DIC/Oxyma pure; settings: whole synthesis, overall, scale of the general procedure 1 g resin

Compound	SI Based on IC50 [1]	SI Based on MIC (micro-organisms)	fold increase of SI on micro-organisms versus parent analog 2 (micro-organisms) [fold]	isolated yield [2] [%]
CC[C@H](C)[C@H](NC(=O)[C@@H](C)NC(=O)[C@H](CO)NC(=O)[C@H](CC(C)C)NC(=O)[C@@H](N)Cc1ccccc1)C(=O)N[C@H](C(=O)NCC(=O)N[C@@H](CCSC)C(=O)N[C@@H](CC(C)C)C(=O)NCC(=O)N[C@@H](CCCCN)C(=O)N[C@@H](CC(C)C)C(=O)N[C@@H](Cc1ccccc1)C(N)=O)C(C)C [NST-2 (1), H-Phe^1-Leu^2-Ser^3-D-Ala^4-Ile^5-Val^6-Gly^7-Met^8-Leu^9-Gly^10-Lys^11-Leu^12-Phe^13-NH2] (H-FLS[dA]IVGMLGKLF-NH2)	5.0	14.4		
CC[C@H](C)[C@H](NC(=O)[C@@H](NC(=O)CNC(=O)[C@H](CCSC)NC(=O)[C@H](CC(C)C)NC(=O)CNC(=O)[C@H](CCCCN)NC(=O)[C@H](CC(C)C)NC(=O)[C@@H](N)Cc1ccccc1)C(C)C)C(=O)N[C@H](C)C(=O)N[C@@H](CO)C(=O)N[C@@H](CC(C)C)C(=O)N[C@@H](Cc1ccccc1)C(=O)N[C@@H](CCCCNC(=O)c1cn2c3c(c(N4CCN(C)CC4)c(F)cc3c1=O)OC[C@@H]2C)C(N)=O [RLFP-1 (4), H-Phe^1-Leu^2-Lys^3-Gly^4-Leu^5-Met^6-Gly^7-Val^8-Ile^9-D-Ala^10-Ser^11-Leu^12-Phe^13-Lys^14(LF)-NH2] (H-FLKGLMGVI[dA]SLFK(Levofloxacinoyl)-NH2)	<0.9	3.9		
CC[C@H](C)[C@H](NC(=O)[C@@H](NC(=O)CNC(=O)[C@H](CCSC)NC(=O)[C@H](CC(C)C)NC(=O)CNC(=O)[C@H](CCCCNC(=O)c1cn2c3c(c(N4CCN(C)CC4)c(F)cc3c1=O)OC[C@@H]2C)NC(=O)[C@H](CC(C)C)NC(=O)[C@@H](N)Cc1ccccc1)C(C)C)C(=O)N[C@H](C)C(=O)N[C@@H](CO)C(=O)N[C@@H](CC(C)C)C(=O)N[C@@H](Cc1ccccc1)C(=O)N[C@@H](CCCCN)C(N)=O [RLFP-2 (5), H-Phe^1-Leu^2-Lys^3(LF)-Gly^4-Leu^5-Met^6-Gly^7-Val^8-Ile^9-D-Ala^10-Ser^11-Leu^12-Phe^13-Lys^14-NH2] (H-FLK(Levofloxacinoyl)GLMGVI[dA]SLFK-NH2)	<0.2	0.5		
CC[C@H](C)[C@H](NC(=O)[C@@H](NC(=O)CNC(=O)[C@H](CCSC)NC(=O)[C@H](CC(C)C)NC(=O)CNC(=O)[C@H](CCCCN)NC(=O)[C@H](CC(C)C)NC(=O)[C@H](Cc1ccccc1)NC(=O)CCNC(=O)c1cn2c3c(c(N4CCN(C)CC4)c(F)cc3c1=O)OC[C@@H]2C)C(C)C)C(=O)N[C@H](C)C(=O)N[C@@H](CO)C(=O)N[C@@H](CC(C)C)C(=O)N[C@@H](Cc1ccccc1)C(=O)N[C@@H](CCCCN)C(N)=O [RLFP-3 (6), LF-β-Ala-Phe^1-Leu^2-Lys^3-Gly^4-Leu^5-Met^6-Gly^7-Val^8-Ile^9-D-Ala^10-Ser^11-Leu^12-Phe^13-Lys^14-NH2] ({Levofloxacinoyl-βAla}-FLKGLMGVI[dA]SLFK-NH2)	0.5	4.2		
CC[C@H](C)[C@H](NC(=O)[C@@H](NC(=O)CNC(=O)[C@H](CCSC)NC(=O)[C@H](CC(C)C)NC(=O)[C@H](CCCCN)NC(=O)[C@H](CCCCN)NC(=O)[C@H](CC(C)C)NC(=O)[C@H](Cc1ccccc1)NC(=O)CCNC(=O)c1cn2c3c(c(N4CCN(C)CC4)c(F)cc3c1=O)OC[C@@H]2C)C(C)C)C(=O)N[C@H](C)C(=O)N[C@@H](CO)C(=O)N[C@@H](CC(C)C)C(=O)N[C@@H](Cc1ccccc1)C(N)=O [RLFP-4 (8), LF-β-Ala-Phe^1-Leu^2-Lys^3-Lys^4-Leu^5-Met^6-Gly^7-Val^8-Ile^9-D-Ala^10-Ser^11-Leu^12-Phe^13-NH2] ({Levofloxacinoyl-βAla}-FLKKLMGVI[dA]SLF-NH2)	0.2	2.8		
CC[C@H](C)[C@H](NC(=O)[C@@H](NC(=O)CNC(=O)[C@H](CCSC)NC(=O)[C@H](CC(C)C)NC(=O)CNC(=O)[C@H](CCCCN)NC(=O)[C@H](CC(C)C)NC(=O)[C@@H](N)Cc1ccccc1)C(C)C)C(=O)N[C@H](C)C(=O)N[C@@H](CO)C(=O)N[C@@H](CC(C)C)C(=O)N[C@@H](Cc1ccccc1)C(N)=O [RNST-2 (2), H-Phe^1-Leu^2-Lys^3-Gly^4-Leu^5-Met^6-Gly^7-Val^8-Ile^9-D-Ala^10-Ser^11-Leu^12-Phe^13-NH2] (H-FLKGLMGVI[dA]SLF-NH2)	0.2	8.8		
CC[C@H](C)[C@H](NC(=O)[C@@H](NC(=O)CNC(=O)[C@H](CCSC)NC(=O)[C@H](CC(C)C)NC(=O)CNC(=O)[C@H](CCCCN)NC(=O)[C@H](CC(C)C)NC(=O)[C@@H](N)Cc1ccccc1)C(C)C)C(=O)N[C@H](C)C(=O)N[C@@H](CO)C(=O)N[C@@H](CC(C)C)C(=O)N[C@@H](Cc1ccccc1)C(=O)N[C@@H](CCCCN)C(N)=O [RSP-1 (3), H-Phe^1-Leu^2-Lys^3-Gly^4-Leu^5-Met^6-Gly^7-Val^8-Ile^9-D-Ala^10-Ser^11-Leu^12-Phe^13-Lys^14-NH2] (H-FLKGLMGVI[dA]SLFK-NH2)	1.5	32.6	3.7	
CC[C@H](C)[C@H](NC(=O)[C@@H](NC(=O)CNC(=O)[C@H](CCSC)NC(=O)[C@H](CC(C)C)NC(=O)[C@H](CCCCN)NC(=O)[C@H](CCCCN)NC(=O)[C@H](CC(C)C)NC(=O)[C@@H](N)Cc1ccccc1)C(C)C)C(=O)N[C@H](C)C(=O)N[C@@H](CO)C(=O)N[C@@H](CC(C)C)C(=O)N[C@@H](Cc1ccccc1)C(N)=O [RSP-4 (7), H-Phe^1-Leu^2-Lys^3-Lys^4-Leu^5-Met^6-Gly^7-Val^8-Ile^9-D-Ala^10-Ser^11-Leu^12-Phe^13-NH2] (H-FLKKLMGVI[dA]SLF-NH2)	>2.5	>8.0		
LF-β-Ala-Phe^1-Leu^2-Lys^3-Gly^4-Leu^5-Met^6-Gly^7-Val^8-Ile^9-D-Ala^10-Ser^11-Leu^12-Phe^13-Lys^14-NH2				26
LF-β-Ala-Phe^1-Leu^2-Lys^3-Lys^4-Leu^5-Met^6-Gly^7-Val^8-Ile^9-D-Ala^10-Ser^11-Leu^12-Phe^13-NH2				31
PEPTIDE1{F.L.K.G.L.M.G.V.I.[dA].S.L.F.K.[am]}$$$$V2.0				7.6
PEPTIDE1{F.L.K.G.L.M.G.V.I.[dA].S.L.F.K.[am]}|PEPTIDE2{[LF]}$PEPTIDE1,PEPTIDE2,3:R3-1:R2$$$V2.0				17
PEPTIDE1{F.L.K.G.L.M.G.V.I.[dA].S.L.F.K.[am]}|PEPTIDE2{[LF]}$PEPTIDE1,PEPTIDE2,14:R3-1:R2$$$V2.0				22.5
PEPTIDE1{F.L.K.G.L.M.G.V.I.[dA].S.L.F.[am]}$$$$V2.0				24.63
PEPTIDE1{F.L.K.K.L.M.G.V.I.[dA].S.L.F.[am]}$$$$V2.0				28
PEPTIDE1{F.L.S.[dA].I.V.G.M.L.G.K.L.F.[am]}$$$$V2.0				68.6
PEPTIDE1{[LF].[bAla].F.L.K.G.L.M.G.V.I.[dA].S.L.F.K.[am]}$$$$V2.0				21
PEPTIDE1{[LF].[bAla].F.L.K.K.L.M.G.V.I.[dA].S.L.F.[am]}$$$$V2.0				25

For part of these data: Strings that start with PEPTIDE1 are HELM notation: dots part the residues, brackets hold end groups and non-standard residues. Where a SMILES comes first, the peptide text is derived from it. [ ]: non-standard residue; d: D form. The star is where a group is joined. Levofloxacinoyl = C[C@H]1COc2c(N3CCN(C)CC3)c(F)cc3c(=O)c(C(=O)*)cn1c23; βAla = NCCC(=O)O
